Assay results published in doi:10.1101/2021.01.27.428018.
No constants are given. Whether binding was seen depends on the method and setting. Binding seen in cells or lysates may run through a third protein. These calls come from enrichment with a bait or labelling near it, and not all partners need be listed. For some of these results: Tags and fused reporters may be left off the sequences shown.

Sequences of proteins named here, by UniProt entry; tags and fusion partners are left off.
UniProt Q8WXI9: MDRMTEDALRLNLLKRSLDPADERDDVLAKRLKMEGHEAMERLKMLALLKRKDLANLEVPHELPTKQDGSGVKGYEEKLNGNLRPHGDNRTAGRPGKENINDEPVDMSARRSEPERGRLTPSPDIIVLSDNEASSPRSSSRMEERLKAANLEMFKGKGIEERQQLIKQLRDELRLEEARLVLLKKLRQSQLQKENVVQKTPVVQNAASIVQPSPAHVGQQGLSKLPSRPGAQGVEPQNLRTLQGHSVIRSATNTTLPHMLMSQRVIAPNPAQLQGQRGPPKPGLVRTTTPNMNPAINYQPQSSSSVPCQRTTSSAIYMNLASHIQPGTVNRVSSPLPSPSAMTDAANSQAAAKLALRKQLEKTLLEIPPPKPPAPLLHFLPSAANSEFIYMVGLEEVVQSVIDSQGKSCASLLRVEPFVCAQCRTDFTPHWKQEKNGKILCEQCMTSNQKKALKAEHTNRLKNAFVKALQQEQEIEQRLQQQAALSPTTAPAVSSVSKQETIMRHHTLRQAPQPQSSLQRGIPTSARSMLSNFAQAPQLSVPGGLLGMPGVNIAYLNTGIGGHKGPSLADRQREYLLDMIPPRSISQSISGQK

T1: FLAG-CDK2AP1 (UniProt O14519)
T1 sequence: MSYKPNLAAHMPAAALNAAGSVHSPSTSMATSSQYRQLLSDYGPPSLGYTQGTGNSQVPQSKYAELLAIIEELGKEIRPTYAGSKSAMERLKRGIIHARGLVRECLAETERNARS

T2: FLAG-ADNP (bait of the PD-MS) (UniProt Q9H2P0)
T2 sequence: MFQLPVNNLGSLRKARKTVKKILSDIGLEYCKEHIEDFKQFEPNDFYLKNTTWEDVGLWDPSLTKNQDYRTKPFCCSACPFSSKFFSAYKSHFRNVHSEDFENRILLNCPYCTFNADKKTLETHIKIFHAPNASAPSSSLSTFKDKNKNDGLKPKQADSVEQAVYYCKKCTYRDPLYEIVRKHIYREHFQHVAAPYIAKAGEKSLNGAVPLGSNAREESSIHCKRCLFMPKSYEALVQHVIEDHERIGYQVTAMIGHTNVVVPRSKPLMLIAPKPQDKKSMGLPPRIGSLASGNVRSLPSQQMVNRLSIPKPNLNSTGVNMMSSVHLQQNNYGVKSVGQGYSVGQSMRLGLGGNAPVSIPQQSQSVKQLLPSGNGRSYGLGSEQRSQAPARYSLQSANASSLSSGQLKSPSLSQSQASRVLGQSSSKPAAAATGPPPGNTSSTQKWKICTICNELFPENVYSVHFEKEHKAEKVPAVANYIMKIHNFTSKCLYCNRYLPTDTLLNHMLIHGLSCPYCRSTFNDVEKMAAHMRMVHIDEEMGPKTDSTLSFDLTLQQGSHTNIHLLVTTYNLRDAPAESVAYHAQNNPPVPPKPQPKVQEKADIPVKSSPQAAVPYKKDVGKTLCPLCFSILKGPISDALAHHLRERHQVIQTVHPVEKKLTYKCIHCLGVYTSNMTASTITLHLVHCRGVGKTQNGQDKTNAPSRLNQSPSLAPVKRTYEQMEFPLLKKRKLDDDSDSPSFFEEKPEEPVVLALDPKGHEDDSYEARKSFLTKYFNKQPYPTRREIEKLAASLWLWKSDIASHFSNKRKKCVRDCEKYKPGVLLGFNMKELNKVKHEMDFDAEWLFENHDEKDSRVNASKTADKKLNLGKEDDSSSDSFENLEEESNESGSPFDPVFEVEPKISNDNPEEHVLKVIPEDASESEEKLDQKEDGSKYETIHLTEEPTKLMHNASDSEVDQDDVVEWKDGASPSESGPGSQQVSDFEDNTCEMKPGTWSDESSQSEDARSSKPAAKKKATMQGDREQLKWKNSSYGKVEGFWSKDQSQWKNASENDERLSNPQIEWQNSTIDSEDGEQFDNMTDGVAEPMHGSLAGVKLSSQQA

B1: BEND3 (protein, UniProt Q5T5X7 1-828)
chain: MNSTEFTEDVEEVLKSITVKVETEAEDAALDCSVNSRTSEKHSVDSVLTALQDSSKRKQLVSDGLLDSVPGVKRRRLIPEALLAGMRNRENSSPCQGNGEQAGRGRSLGNVWPGEEEPCNDATTPSYKKPLYGISHKIMEKKNPPSGDLLNVYELFEKANASNSPSSLRLLNEPQKRDCGSTGAGTDNDPNIYFLIQKMFYMLNTLTSNMSQLHSKVDLLSLEVSRIKKQVSPTEMVAKFQPPPEYQLTAAELKQIVDQSLSGGDLACRLLVQLFPELFSDVDFSRGCSACGFAAKRKLESLHLQLIRNYVEVYYPSVKDTAVWQAECLPQLNDFFSRFWAQREMEDSQPSGQVASFFEAEQVDPGHFLDNKDQEEALSLDRSSTIASDHVVDTQDLTEFLDEASSPGEFAVFLLHRLFPELFDHRKLGEQYSCYGDGGKQELDPQRLQIIRNYTEIYFPDMQEEEAWLQQCAQRINDELEGLGLDAGSEGDPPRDDCYDSSSLPDDISVVKVEDSFEGERPGRRSKKIWLVPIDFDKLEIPQPDFEVPGADCLLSKEQLRSIYESSLSIGNFASRLLVHLFPELFTHENLRKQYNCSGSLGKKQLDPSRIKLIRHYVQLLYPRAKNDRVWTLEFVGKLDERCRRRDTEQRRSYQQQRKVHVPGPECRDLTSYAINPERFREEFEGPPLPPERSSKDFCKIPLDELVVPSPDFPVPSPYLLSDKEVREIVQQSLSVGNFAARLLVRLFPELFTAENLRLQYNHSGACNKKQLDPTRLRLIRHYVEAVYPVEKMEEVWHYECIPSIDERCRRPNRKKCDILKKAKKVEK
B2: TBL1X (protein, UniProt O60907 1-577)
chain: MTELAGASSSCCHRPAGRGAMQSVLHHFQRLRGREGGSHFINTSSPRGEAKMSITSDEVNFLVYRYLQESGFSHSAFTFGIESHISQSNINGTLVPPAALISILQKGLQYVEAEISINEDGTVFDGRPIESLSLIDAVMPDVVQTRQQAFREKLAQQQASAAAAAAAATAAATAATTTSAGVSHQNPSKNREATVNGEENRAHSVNNHAKPMEIDGEVEIPSSKATVLRGHESEVFICAWNPVSDLLASGSGDSTARIWNLNENSNGGSTQLVLRHCIREGGHDVPSNKDVTSLDWNTNGTLLATGSYDGFARIWTEDGNLASTLGQHKGPIFALKWNRKGNYILSAGVDKTTIIWDAHTGEAKQQFPFHSAPALDVDWQNNTTFASCSTDMCIHVCRLGCDRPVKTFQGHTNEVNAIKWDPSGMLLASCSDDMTLKIWSMKQEVCIHDLQAHNKEIYTIKWSPTGPATSNPNSNIMLASASFDSTVRLWDIERGVCTHTLTKHQEPVYSVAFSPDGKYLASGSFDKCVHIWNTQSGNLVHSYRGTGGIFEVCWNARGDKVGASASDGSVCVLDLRK
B3: ZMYM2 (protein, UniProt Q9UBW7 1-1377)
chain: MDTSSVGGLELTDQTPVLLGSTAMATSLTNVGNSFSGPANPLVSRSNKFQNSSVEDDDDVVFIEPVQPPPPSVPVVADQRTITFTSSKNEELQGNDSKITPSSKELASQKGSVSETIVIDDEEDMETNQGQEKNSSNFIERRPPETKNRTNDVDFSTSSFSRSKVNAGMGNSGITTEPDSEIQIANVTTLETGVSSVNDGQLENTDGRDMNLMITHVTSLQNTNLGDVSNGLQSSNFGVNIQTYTPSLTSQTKTGVGPFNPGRMNVAGDVFQNGESATHHNPDSWISQSASFPRNQKQPGVDSLSPVASLPKQIFQPSVQQQPTKPVKVTCANCKKPLQKGQTAYQRKGSAHLFCSTTCLSSFSHKPAPKKLCVMCKKDITTMKGTIVAQVDSSESFQEFCSTSCLSLYEDKQNPTKGALNKSRCTICGKLTEIRHEVSFKNMTHKLCSDHCFNRYRMANGLIMNCCEQCGEYLPSKGAGNNVLVIDGQQKRFCCQSCVSEYKQVGSHPSFLKEVRDHMQDSFLMQPEKYGKLTTCTGCRTQCRFFDMTQCIGPNGYMEPYCSTACMNSHKTKYAKSQSLGIICHFCKRNSLPQYQATMPDGKLYNFCNSSCVAKFQALSMQSSPNGQFVAPSDIQLKCNYCKNSFCSKPEILEWENKVHQFCSKTCSDDYKKLHCIVTYCEYCQEEKTLHETVNFSGVKRPFCSEGCKLLYKQDFARRLGLRCVTCNYCSQLCKKGATKELDGVVRDFCSEDCCKKFQDWYYKAARCDCCKSQGTLKERVQWRGEMKHFCDQHCLLRFYCQQNEPNMTTQKGPENLHYDQGCQTSRTKMTGSAPPPSPTPNKEMKNKAVLCKPLTMTKATYCKPHMQTKSCQTDDTWRTEYVPVPIPVPVYIPVPMHMYSQNIPVPTTVPVPVPVPVFLPAPLDSSEKIPAAIEELKSKVSSDALDTELLTMTDMMSEDEGKTETTNINSVIIETDIIGSDLLKNSDPETQSSMPDVPYEPDLDIEIDFPRAAEELDMENEFLLPPVFGEEYEEQPRPRSKKKGAKRKAVSGYQSHDDSSDNSECSFPFKYTYGVNAWKHWVKTRQLDEDLLVLDELKSSKSVKLKEDLLSHTTAELNYGLAHFVNEIRRPNGENYAPDSIYYLCLGIQEYLCGSNRKDNIFIDPGYQTFEQELNKILRSWQPSILPDGSIFSRVEEDYLWRIKQLGSHSPVALLNTLFYFNTKYFGLKTVEQHLRLSFGTVFRHWKKNPLTMENKACLRYQVSSLCGTDNEDKITTGKRKHEDDEPVFEQIENTANPSRCPVKMFECYLSKSPQNLNQRMDVFYLQPECSSSTDSPVWYTSTSLDRNTLENMLVRVLLVKDIYDKDNYELDEDTD
B4: ZMYM3 (protein, UniProt Q14202 1-1370)
chain: MDPSDFPSPFDPLTLPEKPLAGDLPVDMEFGEDLLESQTAPTRGWAPPGPSPSSGALDLLDTPAGLEKDPGVLDGATELLGLGGLLYKAPSPPEVDHGPEGTLAWDAGDQTLEPGPGGQTPEVVPPDPGAGANSCSPEGLLEPLAPDSPITLQSPHIEEEETTSIATARRGSPGQEEELPQGQPQSPNAPPSPSVGETLGDGINSSQTKPGGSSPPAHPSLPGDGLTAKASEKPPERKRSERVRRAEPPKPEVVDSTESIPVSDEDSDAMVDDPNDEDFVPFRPRRSPRMSLRSSVSQRAGRSAVGTKMTCAHCRTPLQKGQTAYQRKGLPQLFCSSSCLTTFSKKPSGKKTCTFCKKEIWNTKDSVVAQTGSGGSFHEFCTSVCLSLYEAQQQRPIPQSGDPADATRCSICQKTGEVLHEVSNGSVVHRLCSDSCFSKFRANKGLKTNCCDQCGAYIYTKTGSPGPELLFHEGQQKRFCNTTCLGAYKKKNTRVYPCVWCKTLCKNFEMLSHVDRNGKTSLFCSLCCTTSYKVKQAGLTGPPRPCSFCRRSLSDPCYYNKVDRTVYQFCSPSCWTKFQRTSPEGGIHLSCHYCHSLFSGKPEVLDWQDQVFQFCCRDCCEDFKRLRGVVSQCEHCRQEKLLHEKLRFSGVEKSFCSEGCVLLYKQDFTKKLGLCCITCTYCSQTCQRGVTEQLDGSTWDFCSEDCKSKYLLWYCKAARCHACKRQGKLLETIHWRGQIRHFCNQQCLLRFYSQQNQPNLDTQSGPESLLNSQSPESKPQTPSQTKVENSNTVRTPEENGNLGKIPVKTRSAPTAPTPPPPPPPATPRKNKAAMCKPLMQNRGVSCKVEMKSKGSQTEEWKPQVIVLPIPVPIFVPVPMHLYCQKVPVPFSMPIPVPVPMFLPTTLESTDKIVETIEELKVKIPSNPLEADILAMAEMIAEAEELDKASSDLCDLVSNQSAEGLLEDCDLFGPARDDVLAMAVKMANVLDEPGQDLEADFPKNPLDINPSVDFLFDCGLVGPEDVSTEQDLPRTMRKGQKRLVLSESCSRDSMSSQPSCTGLNYSYGVNAWKCWVQSKYANGETSKGDELRFGPKPMRIKEDILACSAAELNYGLAQFVREITRPNGERYEPDSIYYLCLGIQQYLLENNRMVNIFTDLYYLTFVQELNKSLSTWQPTLLPNNTVFSRVEEEHLWECKQLGVYSPFVLLNTLMFFNTKFFGLQTAEEHMQLSFTNVVRQSRKCTTPRGTTKVVSIRYYAPVRQRKGRDTGPGKRKREDEAPILEQRENRMNPLRCPVKFYEFYLSKCPESLRTRNDVFYLQPERSCIAESPLWYSVIPMDRSMLESMLNRILAVREIYEELGRPGEEDLD

Key:
Assay in all cases: affinity purification with mass spectrometry
[1] = biological target: FLAG-GATAD2B (full-length) (UniProt Q8WXI9)
FLAG-CDK2AP1 = biological target: T1, FLAG-CDK2AP1
[2] = biological target: T2, FLAG-ADNP (bait of the PD-MS)

Row | Binder | binding [2] | further results
1 | B1 |  | binding [1]: binds
2 | B2 |  | binding (FLAG-CDK2AP1): binds
3 | B3 | binds | 
4 | B4 | binds | 
